Data as given in PubChem BioAssay AID1259308 (NCATS, 2017)

Aim: 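Knock-downs that increase output of a recombinant reporter protein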 (primary screen)
System: human HEK293 embryonic kidney cells stably expressing firefly luciferase (HEK-CMV-Luc2-Hygro)
Knock-down reagent: single siRNA against human genes, 0.8 pmol siRNA per well
Time to read-out: 72 h
Read-out: 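Luciferase light (ONE-Glo) measured on one replicate plate set and viability (CellTiter-Glo) on the other, scaled to a negative control siRNA, with robust z-scores and luciferase per cell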
Scale: total luciferase, z-score and total luciferase, % of control: higher = more reporter protein produced; luciferase per cell, z-score: higher = more reporter output per viable cell; viable cells, % of control: higher = more viable cells
Hit rule: 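Active when the median/MAD z-score for overall luciferase is greater than 3; a gene was taken forward for validation with new siRNAs if at least two of its three siRNAs passed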
Meaning of the calls: active = raised luciferase; inactive = no rise
This is one part, drawn at random, of about 59,000 reagents. In the full data, about 1,510 (2.6%) got an active call. 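Calls use total luciferase alone and ignore viability, so some active siRNAs may act by altering cell number.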 Reagents against one gene are numbered here. Reagent sequences are not shown.

Target gene,siRNA no.,"total luciferase, z-score","total luciferase, % of control","luciferase per cell, z-score","viable cells, % of control",call
NLGN4X (neuroligin 4 X-linked),1,-0.841,65.2,0.726,60.1,inactive
NLGN4X (neuroligin 4 X-linked),2,0.232,86.5,0.531,84,inactive
NLGN4X (neuroligin 4 X-linked),3,5.43,190,4.09,72.3,active
CSF3 (colony stimulating factor 3),1,-0.398,74,-0.0426,83.6,inactive
CSF3 (colony stimulating factor 3),2,-0.64,69.2,1.02,59.1,inactive
CSF3 (colony stimulating factor 3),3,-0.152,78.9,0.0498,87,inactive
SERPINA2 (serpin family A member 2 (gene/pseudogene)),1,1.16,105,0.478,103,inactive
SERPINA2 (serpin family A member 2 (gene/pseudogene)),2,-0.318,75.6,-0.0758,86.1,inactive
SERPINA2 (serpin family A member 2 (gene/pseudogene)),3,0.863,99.1,0.402,99.6,inactive
GPR179 (G protein-coupled receptor 179),1,0.764,97.1,0.64,91.7,inactive
GPR179 (G protein-coupled receptor 179),2,-2,42.1,-2.03,80.3,inactive
GPR179 (G protein-coupled receptor 179),3,1.23,106,0.797,96.3,inactive

Sorted by “total luciferase, z-score” (highest first): some entries from above
Target gene,siRNA no.,"total luciferase, z-score","total luciferase, % of control","luciferase per cell, z-score","viable cells, % of control",call
NLGN4X (neuroligin 4 X-linked),3,5.43,190,4.09,72.3,active
CSF3 (colony stimulating factor 3),1,-0.398,74,-0.0426,83.6,inactive

Next records follow.
Target gene,siRNA no.,"total luciferase, z-score","total luciferase, % of control","luciferase per cell, z-score","viable cells, % of control",call
KCTD15 (potassium channel tetramerization domain containing 15),1,-1.34,55.2,1.25,44.3,inactive
KCTD15 (potassium channel tetramerization domain containing 15),2,3.07,143,2.78,76.8,active
KCTD15 (potassium channel tetramerization domain containing 15),3,3.62,154,2.55,88,active
CARD10 (caspase recruitment domain family member 10),1,-0.514,71.7,-0.503,91.4,inactive
CARD10 (caspase recruitment domain family member 10),2,-0.0758,80.4,0.314,82.7,inactive
CARD10 (caspase recruitment domain family member 10),3,1.73,116,1.67,83.6,inactive
GDPD1 (glycerophosphodiester phosphodiesterase domain containing 1),1,2.06,123,1.17,101,inactive
GDPD1 (glycerophosphodiester phosphodiesterase domain containing 1),2,0.204,85.9,1.29,68.3,inactive
GDPD1 (glycerophosphodiester phosphodiesterase domain containing 1),3,0.0817,83.5,-0.263,100,inactive
SSTR2 (somatostatin receptor 2),1,3.18,145,4.12,54.8,active
SSTR2 (somatostatin receptor 2),2,1.99,122,1.18,99.4,inactive
SSTR2 (somatostatin receptor 2),3,-0.615,69.6,-0.741,94.6,inactive
